Assay results as given in paper PMC4809424.

Sequences of proteins named here, by UniProt entry; tags and fusion partners are left off.
UniProt P14635: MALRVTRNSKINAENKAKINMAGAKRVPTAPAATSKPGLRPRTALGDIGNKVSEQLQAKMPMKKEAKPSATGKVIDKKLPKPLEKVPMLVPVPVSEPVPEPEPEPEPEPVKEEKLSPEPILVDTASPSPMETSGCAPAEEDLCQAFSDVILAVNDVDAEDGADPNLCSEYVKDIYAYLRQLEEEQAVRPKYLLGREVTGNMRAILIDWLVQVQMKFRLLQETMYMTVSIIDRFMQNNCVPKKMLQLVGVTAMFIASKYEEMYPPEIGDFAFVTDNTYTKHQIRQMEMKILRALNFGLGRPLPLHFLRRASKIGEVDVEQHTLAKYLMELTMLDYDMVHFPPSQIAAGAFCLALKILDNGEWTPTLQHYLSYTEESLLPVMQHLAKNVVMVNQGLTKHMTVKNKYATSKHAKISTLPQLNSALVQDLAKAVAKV

Biological target: Flag-tagged CCNB1 (UniProt P14635)
Assay: affinity purification with mass spectrometry; HCT116 cells transfected with Flag-tagged CCNB1; RIPA lysis buffer; anti-Flag antibody-conjugated agarose; eluted with 100 uM Flag peptide; trypsin digest, mass spectrometry

B1: USP22 (endogenous) (enzyme, UniProt Q9UPT9 1-525)
chain: MVSRPEPEGEAMDAELAVAPPGCSHLGSFKVDNWKQNLRAIYQCFVWSGTAEARKRKAKSCICHVCGVHLNRLHSCLYCVFFGCFTKKHIHEHAKAKRHNLAIDLMYGGIYCFLCQDYIYDKDMEIIAKEEQRKAWKMQGVGEKFSTWEPTKRELELLKHNPKRRKITSNCTIGLRGLINLGNTCFMNCIVQALTHTPLLRDFFLSDRHRCEMQSPSSCLVCEMSSLFQEFYSGHRSPHIPYKLLHLVWTHARHLAGYEQQDAHEFLIAALDVLHRHCKGDDNGKKANNPNHCNCIIDQIFTGGLQSDVTCQVCHGVSTTIDPFWDISLDLPGSSTPFWPLSPGSEGNVVNGESHVSGTTTLTDCLRRFTRPEHLGSSAKIKCSGCHSYQESTKQLTMKKLPIVACFHLKRFEHSAKLRRKITTYVSFPLELDMTPFMASSKESRMNGQYQQPTDSLNNDNKYSLFAVVNHQGTLESGHYTSFIRQHKDQWFKCDDAIITKASIKDVLDSEGYLLFYHKQFLEYE
- binding: binds

These are yes or no findings as the source states them, for the method shown. Binding seen in cells or lysates may run through a third protein. Here binding means that the protein was enriched with, or labelled near, the bait; the list need not be complete.
